Laboratory results: US20050202443
For at least one entry, the source does not settle the construct or the ends of the probe.

System: BccI
Assay: enzyme reaction in vitro
Conditions: isoschizomer comparison, same lambda pattern; purified native protein; only the motif is given

Sequence: CCATC (double strand) [HpyC1I recognition site in lambda DNA]
- activity on this sequence: active
